This assay deals with Avr1d (Phytophthora sojae). Kind of assay: two-hybrid.

These are yes or no findings as the source states them, for the method shown. Binding can be weak; no strength is given.

B1: AtPUB23 (protein, UniProt Q84TG3 1-411)
chain: MSGGIMDEEIEIPPFFLCPISLEIMKDPVIVSTGITYDRDSIEKWLFAGKKNSCPVTKQDITDADLTPNHTLRRLIQSWCTLNASYGVERIPTPRPPICKSEIEKLIRDSASSHENQVKCLKRLRQIVSENATNKRCLEAAGVPEFLANIVSNDSENGSLTDEALNLLYHLETSETVLKNLLNNKKDNNIVKSLTKIMQRGMYESRVYATLLLKNILEVADPMQSMTLKPEVFTEVVQILDDRISQKATKAAMHILVNICPWGRNRHKAVEAGVISVIIELLMDESFTSERRGPEMAMVVLDLLCQCAEGRAEFLNHGAAIAVVCKKILRVSQTASDRAVRVLLSVGRFCATPALLHEMLQLGVVAKLCLVLQVSCGGKTKEKAKELLKLHARVWKDSPCLPKNMILAYPC
For the molecule B1, the binding result is on record as “binds”.

B2: AtPUB24 (protein, UniProt Q9SF15 1-456)
chain: MDQEEEEIEIPNYFICPISLEIMKDPVTTVSGITYDRQNIVKWLEKVPSCPVTKQPLPLDSDLTPNHMLRRLIQHWCVENETRGVVRISTPRVPPGKLNVVEEIKNLKKFGQEALGREETLQKLEVLAMDGNNRRLMCECGVHKSLILFVVKCTSEDEDGRRRIKGLDESLRLLHLIGIPSNDAKTILMENDRVMESLTWVLHQEDFLSKAYTIVLLRNLTEYTSSHIVERLNPEIFKGIIGFLKDVVNSVNRTSPTVRETVQSSSRPSLGKTEPSKLDHSLVIKQAVTAALMILLETSSWSRNRSLLVDLGAVSELIELEISYTGEKRITELMLGVLSRLCCCANGRAEILAHRGGIAVVTKRLLRVSPAADDRAISILTTVSKFSPENMVVEEMVNVGTVEKLCSVLGMDCGLNLKEKAKEILKDHFDEWKKFPCIDITLLTKLLSISPKGPKI
For B2, the binding result is listed as “binds”.

These data come from PMC8526854.
